The data set can be described thus: Fluorescence comparison of phosphorylated and unphosphorylated peptides in assay mixture without enzyme. In kind it is physicochemical. Conditions: phosphorylated vs unphosphorylated peptide, excitation 360 nm, emission 485 nm.
The mark [1] stands for this setting: calculated from single peptide solutions (10 μM).

Marks after values point to notes of the source that are not given here.

Take “Ac-Leu-Arg-Arg-Ala-Ser-Leu-Pro-Sox-NH2 (LRRASLP; Ac; Sox; C-terminal amide; Cyclic-AMP dependent kinase (PKA) substrate containing metal binding amino acid (Sox)) [Ac-LRRAS*LP-Sox-NH2, Sox-containing peptide substrate (sensor) for PKA]”: the “Fluorescence Increase” value (calculated from slope (units/μM) of product and substrate concentration versus fluorescence intensity) is 300%^e. Regarding “Ac-Sox-Pro-Gly-Ile-Tyr-Ala-Ala-Pro-Phe-Ala-Lys-Lys-Lys-NH2 (PGIYAAPFAKKK; Ac; Sox; C-terminal amide; Abelson kinase (Abl) substrate containing the metal binding amino acid (Sox)) [Sox-containing peptide substrate (sensor) for Abl]”, under setting [1], the “Fluorescence Increase” value is given as 400%^g. Same read-out and setting: the result for “Ac-Sox-Pro-Gly-Thr-Phe-Arg-Arg-Arg-NH2 (PGTFRRR; Ac; Sox; C-terminal amide; Protein kinase C substrate containing the metal binding amino acid (Sox)) [Ac-Sox-PGT*FRRR-NH2, Sox-containing peptide substrate (sensor) for PKC, threonine phosphorylation site]” reads 280%^g.

The record behind these values is patent US7892775B2, “Fluorescence assay for kinase activity” (Massachusetts Institute of Technology, priority 2003, dated 2011).
